Results from PubChem BioAssay (EPA / NIEHS).
Inconclusive means that the source gave no clear call. Such entries were picked first, then a sample of the others. For part of these data: Potencies of inconclusive entries are doubtful fits and often do not repeat. The source made the active and inactive calls. Rule for the calls: active = hit-call score of the fitted dose curve at least 0.9, where 1 is the maximum; inconclusive = response in the unintended direction; inactive = score below 0.9.

By UniProt entry, the sequences of proteins in these tests, tags left out. Where a name states a change or a piece, a line headed by the entry shows the natural chain unless it says otherwise.
UniProt P00567: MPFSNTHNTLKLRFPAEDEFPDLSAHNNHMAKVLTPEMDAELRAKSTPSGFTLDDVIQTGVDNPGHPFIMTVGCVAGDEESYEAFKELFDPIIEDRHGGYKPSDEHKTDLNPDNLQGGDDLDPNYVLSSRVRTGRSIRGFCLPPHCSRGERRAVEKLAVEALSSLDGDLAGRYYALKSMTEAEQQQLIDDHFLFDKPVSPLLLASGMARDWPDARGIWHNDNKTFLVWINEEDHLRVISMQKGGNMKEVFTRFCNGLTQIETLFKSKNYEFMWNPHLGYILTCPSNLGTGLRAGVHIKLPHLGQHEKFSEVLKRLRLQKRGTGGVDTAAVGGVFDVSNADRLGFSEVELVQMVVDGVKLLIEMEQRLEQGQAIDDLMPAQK
UniProt P22734: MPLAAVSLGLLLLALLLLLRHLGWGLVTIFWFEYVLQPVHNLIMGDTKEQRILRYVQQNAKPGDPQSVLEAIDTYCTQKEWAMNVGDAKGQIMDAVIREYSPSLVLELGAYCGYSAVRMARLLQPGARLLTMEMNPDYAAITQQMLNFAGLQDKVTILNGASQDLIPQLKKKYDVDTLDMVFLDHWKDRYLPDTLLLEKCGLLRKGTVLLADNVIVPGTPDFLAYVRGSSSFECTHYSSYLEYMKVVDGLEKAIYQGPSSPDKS
UniProt P05979, whole entry, looked up: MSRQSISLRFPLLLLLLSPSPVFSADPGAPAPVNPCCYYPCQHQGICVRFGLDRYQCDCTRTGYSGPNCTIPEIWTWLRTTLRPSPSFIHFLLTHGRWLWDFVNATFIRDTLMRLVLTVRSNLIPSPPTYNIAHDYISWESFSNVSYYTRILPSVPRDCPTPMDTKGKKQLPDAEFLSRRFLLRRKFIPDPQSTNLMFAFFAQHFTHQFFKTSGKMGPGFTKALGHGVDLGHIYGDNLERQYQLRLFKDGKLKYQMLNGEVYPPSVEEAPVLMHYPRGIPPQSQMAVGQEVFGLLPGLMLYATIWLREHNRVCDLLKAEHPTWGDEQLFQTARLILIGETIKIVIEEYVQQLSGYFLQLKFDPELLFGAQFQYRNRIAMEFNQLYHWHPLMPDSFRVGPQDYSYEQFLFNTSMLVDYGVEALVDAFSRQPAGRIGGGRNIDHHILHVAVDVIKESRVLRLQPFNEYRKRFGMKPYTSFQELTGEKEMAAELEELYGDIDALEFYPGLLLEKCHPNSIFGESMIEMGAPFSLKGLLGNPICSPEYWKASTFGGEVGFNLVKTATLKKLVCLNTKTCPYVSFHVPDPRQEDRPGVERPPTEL
UniProt Q2NNR5: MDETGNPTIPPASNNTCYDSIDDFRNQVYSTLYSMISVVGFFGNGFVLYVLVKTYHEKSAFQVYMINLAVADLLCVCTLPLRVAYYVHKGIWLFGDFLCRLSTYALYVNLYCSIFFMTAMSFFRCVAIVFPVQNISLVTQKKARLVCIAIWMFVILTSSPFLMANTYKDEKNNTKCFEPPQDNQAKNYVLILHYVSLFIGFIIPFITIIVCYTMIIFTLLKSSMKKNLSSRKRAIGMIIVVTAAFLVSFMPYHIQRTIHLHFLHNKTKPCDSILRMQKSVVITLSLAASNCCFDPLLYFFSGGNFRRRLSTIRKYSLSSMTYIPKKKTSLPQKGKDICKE
UniProt P28190, whole entry, looked up: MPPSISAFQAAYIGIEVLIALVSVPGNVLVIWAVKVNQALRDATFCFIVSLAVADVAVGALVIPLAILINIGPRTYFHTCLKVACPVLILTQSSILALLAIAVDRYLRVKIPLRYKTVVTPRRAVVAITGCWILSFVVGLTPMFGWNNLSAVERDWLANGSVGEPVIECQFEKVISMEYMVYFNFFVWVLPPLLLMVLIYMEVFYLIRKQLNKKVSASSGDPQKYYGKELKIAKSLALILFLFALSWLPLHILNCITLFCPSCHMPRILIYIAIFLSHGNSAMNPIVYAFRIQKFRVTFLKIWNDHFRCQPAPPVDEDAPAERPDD
UniProt P47898, whole entry, looked up: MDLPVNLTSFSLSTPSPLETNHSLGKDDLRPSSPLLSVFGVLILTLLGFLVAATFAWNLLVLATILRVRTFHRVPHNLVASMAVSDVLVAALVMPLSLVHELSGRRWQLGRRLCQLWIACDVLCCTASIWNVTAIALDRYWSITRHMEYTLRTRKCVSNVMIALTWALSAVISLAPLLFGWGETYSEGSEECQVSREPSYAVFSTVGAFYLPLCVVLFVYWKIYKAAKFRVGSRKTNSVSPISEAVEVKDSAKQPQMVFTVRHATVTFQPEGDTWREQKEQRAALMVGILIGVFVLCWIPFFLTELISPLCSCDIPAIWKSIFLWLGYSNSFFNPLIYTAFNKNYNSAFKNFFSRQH
UniProt Q95136, whole entry, looked up: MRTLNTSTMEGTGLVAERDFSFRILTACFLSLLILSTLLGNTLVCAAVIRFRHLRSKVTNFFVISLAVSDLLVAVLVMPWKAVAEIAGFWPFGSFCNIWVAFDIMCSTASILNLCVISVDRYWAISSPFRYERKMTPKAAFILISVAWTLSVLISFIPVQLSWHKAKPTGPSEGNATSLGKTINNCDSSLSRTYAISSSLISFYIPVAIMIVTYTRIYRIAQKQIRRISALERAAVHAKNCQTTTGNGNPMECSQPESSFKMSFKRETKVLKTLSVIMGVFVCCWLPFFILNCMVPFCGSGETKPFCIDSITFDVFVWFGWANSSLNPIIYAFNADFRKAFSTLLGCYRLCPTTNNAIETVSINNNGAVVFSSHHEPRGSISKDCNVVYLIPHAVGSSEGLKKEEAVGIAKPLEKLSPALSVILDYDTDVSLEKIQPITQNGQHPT
UniProt P28223, whole entry, looked up: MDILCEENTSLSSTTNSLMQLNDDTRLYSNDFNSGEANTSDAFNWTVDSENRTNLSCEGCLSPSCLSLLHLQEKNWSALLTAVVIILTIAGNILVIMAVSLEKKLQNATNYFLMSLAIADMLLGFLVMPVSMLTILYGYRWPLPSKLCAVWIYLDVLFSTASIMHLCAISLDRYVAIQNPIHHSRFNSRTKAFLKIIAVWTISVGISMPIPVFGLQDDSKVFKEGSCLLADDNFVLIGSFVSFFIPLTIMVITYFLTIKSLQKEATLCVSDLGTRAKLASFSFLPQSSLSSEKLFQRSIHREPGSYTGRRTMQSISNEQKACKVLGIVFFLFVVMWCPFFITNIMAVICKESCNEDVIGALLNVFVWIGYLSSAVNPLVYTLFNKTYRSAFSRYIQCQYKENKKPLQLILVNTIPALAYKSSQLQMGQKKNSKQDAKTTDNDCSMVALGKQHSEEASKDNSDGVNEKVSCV
UniProt P29476, whole entry, looked up: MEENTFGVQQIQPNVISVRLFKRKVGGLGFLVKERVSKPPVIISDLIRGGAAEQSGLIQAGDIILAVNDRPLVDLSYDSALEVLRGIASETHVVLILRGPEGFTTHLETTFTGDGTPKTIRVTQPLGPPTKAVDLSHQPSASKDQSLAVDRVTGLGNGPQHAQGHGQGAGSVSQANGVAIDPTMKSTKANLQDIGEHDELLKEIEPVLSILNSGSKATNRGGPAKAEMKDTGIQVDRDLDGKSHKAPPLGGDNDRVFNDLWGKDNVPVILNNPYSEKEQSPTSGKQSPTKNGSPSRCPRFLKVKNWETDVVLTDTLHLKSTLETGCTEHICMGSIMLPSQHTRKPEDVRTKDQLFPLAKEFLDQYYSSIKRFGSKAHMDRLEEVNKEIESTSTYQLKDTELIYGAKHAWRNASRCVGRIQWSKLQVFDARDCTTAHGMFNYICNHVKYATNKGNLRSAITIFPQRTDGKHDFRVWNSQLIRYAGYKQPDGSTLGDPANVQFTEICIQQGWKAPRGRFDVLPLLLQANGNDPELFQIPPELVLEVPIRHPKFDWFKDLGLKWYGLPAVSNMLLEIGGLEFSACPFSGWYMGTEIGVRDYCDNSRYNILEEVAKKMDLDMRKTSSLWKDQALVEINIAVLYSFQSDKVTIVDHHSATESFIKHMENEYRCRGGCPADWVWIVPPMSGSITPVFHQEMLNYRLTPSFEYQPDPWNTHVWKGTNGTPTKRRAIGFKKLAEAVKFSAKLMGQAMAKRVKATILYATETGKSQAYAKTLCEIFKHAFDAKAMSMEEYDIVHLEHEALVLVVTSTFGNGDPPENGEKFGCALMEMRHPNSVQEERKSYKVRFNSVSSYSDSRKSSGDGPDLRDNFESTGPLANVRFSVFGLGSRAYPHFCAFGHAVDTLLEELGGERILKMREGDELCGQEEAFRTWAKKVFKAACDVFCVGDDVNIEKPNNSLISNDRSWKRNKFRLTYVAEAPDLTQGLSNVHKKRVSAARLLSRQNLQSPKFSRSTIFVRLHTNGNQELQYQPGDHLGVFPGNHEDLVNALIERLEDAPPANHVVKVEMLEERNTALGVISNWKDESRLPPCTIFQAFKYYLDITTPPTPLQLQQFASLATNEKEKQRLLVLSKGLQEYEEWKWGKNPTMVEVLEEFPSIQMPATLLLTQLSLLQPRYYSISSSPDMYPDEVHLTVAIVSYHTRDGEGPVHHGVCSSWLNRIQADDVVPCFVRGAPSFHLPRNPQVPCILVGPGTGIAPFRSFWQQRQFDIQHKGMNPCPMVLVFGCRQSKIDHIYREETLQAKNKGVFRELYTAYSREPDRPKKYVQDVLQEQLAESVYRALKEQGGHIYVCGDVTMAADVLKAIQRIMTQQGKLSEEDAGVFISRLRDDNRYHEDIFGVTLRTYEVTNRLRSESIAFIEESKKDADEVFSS

Legend:
[1] = biological target: rabbit Imidazoline 2 Central (I2C), CKB (gene 100009085) (UniProt P00567); assay: NVS_ENZ_rabI2C: NovaScreen (NVS) Enzymatic Assay for rabbit Imidazoline 2 Central (I2C) (AID 2283228)
Procedure, shortened: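 Rabbit brain membranes, cell-free; readout by filter-based scintillation counting 1.5 hours after dosing, loss of signal vs DMSO. Initial duplicate test at 25 uM, then concentration-response with 50 uM top concentration.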

[2] = biological target: rat Catechol-O-Methyl Transferase (COMT), Comt (gene 24267) (UniProt P22734); assay: NVS_ENZ_rCOMT: NovaScreen (NVS) Enzymatic Assay for rat Catechol-O-Methyl Transferase (COMT) (AID 2283235)
Procedure, shortened: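 Rat dorsal striatum extract served as COMT source; product quantified by HPLC/spectrophotometry, read at 0 h after dosing. Primary single-concentration screen at 25 uM, followed by concentration series to a 50 uM maximum.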

[3] = tested on: bovine Histamine 1 Receptor (H1), gene 281231; assay: NVS_GPCR_bH1: NovaScreen (NVS) G Protein-Coupled Receptor Assay for bovine Histamine 1 Receptor (H1) (AID 2283246)
Procedure, shortened: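 Hits from a 25 uM duplicate primary screen were retested in concentration series (top 50 uM); binding measured as scintillation-counted displacement of radioligand from bovine cerebellar membranes after 1 h, normalised to DMSO.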

[4] = biological target: sheep Cyclooxygenase-1 (Cox1), PTGS1 (gene 443551) (UniProt P05979); assay: NVS_ENZ_oCOX1: NovaScreen (NVS) Enzymatic Assay for sheep Cyclooxygenase-1 (Cox1) (AID 2283239);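 note: actives reduce cyclooxygenase activity so potencies are for inhibitors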
Procedure, shortened: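 Colorimetric enzyme readout using sheep seminal-vesicle cyclooxygenase-1, measured 0.66 h post-dosing. Single-concentration duplicates at 25 uM first, then concentration series for actives, with DMSO as baseline and plate controls.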

[5] = NVS_GPCR_bNPY_NonSelective: NovaScreen (NVS) G Protein-Coupled Receptor Assay for bovine Neuropeptide Y (NPY) Receptor, Non-selective Binding (AID 2283245)
Procedure, shortened: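 Displacement of radioligand from bovine hippocampal membrane receptors, read by filtration and scintillation counting after 1 hour. Concentration-response to a top of 50 uM followed a 25 uM duplicate primary screen. Loss of signal versus DMSO.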

[6] = biological target: guinea pig Leukotriene D4 Receptor (LTD4), CYSLTR1 (gene 100135514) (UniProt Q2NNR5); assay: NVS_GPCR_gLTD4: NovaScreen (NVS) G Protein-Coupled Receptor Assay for guinea pig Leukotriene D4 Receptor (LTD4) (AID 2283248)
Procedure, shortened: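 Guinea pig lung membrane preparation; bound radioligand measured by filter scintillation after 1 h, loss of signal versus DMSO marking displacement. Compounds tested at 25 uM in duplicate, hits retested to max 50 uM.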

[7] = tested on: bovine Angiotensin II Receptor Type 2 (AT2), gene 407157; assay: NVS_GPCR_bAT2: NovaScreen (NVS) G Protein-Coupled Receptor Assay for bovine Angiotensin II Receptor Type 2 (AT2) (AID 2283240)
Procedure, shortened: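 Radioligand displacement on bovine cerebellar membranes, 1 hour incubation, filter-based scintillation counting; loss of signal vs DMSO. Duplicate single-point screen at 25 uM, then concentration-response to 50 uM maximum.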

[8] = biological target: Adenosine receptor A1 (Bos taurus) (UniProt P28190); assay: NVS_GPCR_bAdoR_NonSelective: NovaScreen (NVS) G Protein-Coupled Receptor Assay for bovine Adenosine Receptor (AdoR), Non-selective Binding (AID 2283244)
Procedure, shortened: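 Cell-free binding with membranes from bovine striatum: radioligand displaced by test chemical, read after 1 h by filtration and scintillation. Single-point 25 uM duplicate primary, 50 uM top concentration in follow-up curves, DMSO baseline.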

[9] = biological target: human Serotonin, 5-Hydroxytryptamine Receptor 5A (5HT5A), HTR5A (gene 3361) (UniProt P47898); assay: NVS_GPCR_h5HT5A: NovaScreen (NVS) G Protein-Coupled Receptor Assay for human Serotonin, 5-Hydroxytryptamine Receptor 5A (5HT5A) (AID 2283251)
Procedure, shortened: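 Membranes from HEK293 cells, radioligand binding read by filtration and scintillation after 1 h. Single-concentration duplicate testing at 25 uM, then concentration-response for actives; positive-direction fitting relative to DMSO.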

[10] = biological target: bovine Dopamine Receptor (DR), Non-selective Binding, DRD1 (gene 281125) (UniProt Q95136); assay: NVS_GPCR_bDR_NonSelective: NovaScreen (NVS) G Protein-Coupled Receptor Assay for bovine Dopamine Receptor (DR), Non-selective Binding (AID 2283241)
Procedure, shortened: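 Filter-based radioligand binding with bovine striatal membrane, incubated 1 h; DMSO as negative baseline. Initial duplicate single-point test at 25 uM preceded concentration series for actives.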

[11] = biological target: human Serotonin, 5-Hydroxytryptamine Receptor 2A (5HT2A), HTR2A (gene 3356) (UniProt P28223); assay: NVS_GPCR_h5HT2A: NovaScreen (NVS) G Protein-Coupled Receptor Assay for human Serotonin, 5-Hydroxytryptamine Receptor 2A (5HT2A) (AID 2283249)
Procedure, shortened: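 Radioligand displacement on human cortex tissue extract, counted by filtration and scintillation 1.5 h post-dosing. Initial single-concentration screen at 25 uM in duplicate, concentration series in follow-up; DMSO as baseline.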

[12] = biological target: rat Constitutive Nitric Oxide Synthase (CNOS), Nos1 (gene 24598) (UniProt P29476); assay: NVS_ENZ_rCNOS: NovaScreen (NVS) Enzymatic Assay for rat Constitutive Nitric Oxide Synthase (CNOS) (AID 2283236)
Procedure, shortened: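 Single 25 uM duplicate screen, then concentration series to 50 uM for chemicals meeting threshold. Rat brain membrane-derived CNOS activity detected radiometrically by filtration and scintillation counting, 1 h after compound addition; DMSO as baseline.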

With Cc1nc(-c2ccccn2)ncc1C(=O)Nn1cc(C)c2cc(F)ccc21 the AC50 [1] was inconclusive: 25 µM.
With Cc1oc2c(NC(=O)c3c(Cl)cccc3Cl)cccc2c1C(C)(C)O the AC50 [2] was inconclusive: 6.7 µM and the AC50 [3] was active: 25 µM.
For CCCCCCCCCCCCc1ccccc1S(=O)(=O)O, the AC50 [4] was active: 9.01 µM, the AC50 [5] was inconclusive: 0.492 µM and the AC50 [6] was active: 25 µM.
In the case of CC(C)(C)c1csc(-c2cc3cc(OCc4ccccc4CC(=O)O)ccc3o2)n1, the AC50 [7] is reported as inconclusive: 25 µM.
With CN(C)c1ccc(N=NS(=O)(=O)O)cc1 the AC50 [8] was inconclusive: 23.8 µM.
In the case of CC1=C(/C=C/C(C)=C/C=C/C(C)=C/CO)C(C)(C)CCC1, the AC50 [3] is reported as inconclusive: 0.0732 µM.
For CC(=O)OCCC(C)C, the AC50 [9] was inconclusive: 25 µM.
For NC(=O)N1C(=O)C(C(=O)c2cc(Cl)cs2)c2cc(F)c(Cl)cc21 (stereo unspecified), the outcome [1] was “inactive”.
For FC(F)(F)C(F)(F)C(F)(F)C(F)(F)C(F)(F)C(F)(F)CCI, the AC50 [1] was inconclusive: 0.586 µM.
For COS(C)(=O)=O, the outcome [10] was “inactive”.
With CCOc1cccc(-n2cc(C(=O)N3CCN(c4cc(C(=O)O)c5ccccc5c4)CC3)nc2-c2ccc(C)cc2)c1 the outcome [8] was “inactive”.
With Cc1ccc(Cl)cc1 the AC50 [5] was inconclusive: 16.7 µM.
In the case of CC(C)(C)c1ccc(O)c(O)c1, the AC50 [6] is reported as inconclusive: 1.44 µM and the outcome [6] is reported as “inactive”.
With CCCCN(CCCC)CCCC the AC50 [11] was inconclusive: 25 µM.
In the case of COc1ccc([N+](=O)[O-])cc1N, the AC50 [12] is reported as inconclusive: 46.1 µM.
For N#CCN(CC#N)CCN(CC#N)CC#N, the outcome [4] was “inactive”.
With CC1CCC2CC1C2(C)C (stereo unspecified) the AC50 [4] was inconclusive: 6.19 µM.
